Where two headings read alike, the source gives them in different places. Some of these results come from one statement about several compounds together.
Molecular target: T1, GSK-3β (Rattus norvegicus, UniProt P18266)
T1 construct: endogenous in cells; host or cells: primary cerebral cortex neurons from SD rat fetus
Assay: Intracellular GSK-3β inhibitory activity with Tau phosphorylation as index (cerebral cortex-derived neuronal cell)
Format: cell-based, SD rat

Amino acid sequences for entries named in this document (tags omitted). A change or cut given only in a name is not applied to a line headed by its entry.
UniProt P18266: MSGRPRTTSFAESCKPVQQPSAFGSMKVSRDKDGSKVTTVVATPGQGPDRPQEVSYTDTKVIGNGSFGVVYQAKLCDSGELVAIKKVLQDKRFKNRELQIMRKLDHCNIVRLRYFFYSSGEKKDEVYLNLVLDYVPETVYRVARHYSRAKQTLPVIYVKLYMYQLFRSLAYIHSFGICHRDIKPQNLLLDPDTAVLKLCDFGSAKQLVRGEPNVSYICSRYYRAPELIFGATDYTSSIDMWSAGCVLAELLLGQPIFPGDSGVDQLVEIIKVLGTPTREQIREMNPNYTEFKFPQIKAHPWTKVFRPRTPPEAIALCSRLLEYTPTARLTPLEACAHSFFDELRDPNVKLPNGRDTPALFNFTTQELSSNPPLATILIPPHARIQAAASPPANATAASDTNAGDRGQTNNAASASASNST

**Q.** Which IC50 (read-out: IC50 values (Tau phosphorylation AT-8, amended with total Tau); rat cerebral cortex neuronal cells, 2 hr treatment) does the source give for `COc1ccc(CSc2nnc(-c3ccc4ncsc4c3)o2)cc1C(F)(F)F` [Example 3, 6-[5-[[4-methoxy-3-(trifluoromethyl)benzyl]thio]-1,3,4-oxadiazol-2-yl]benzothiazole] here?
**A.** ≤ 10 µM

**Q.** `COc1ccc(-n2cnc3ccc(-c4nnc(SCc5ccc(OC)c(C(F)(F)F)c5)o4)cc32)cc1` [Example 176, 1-(4-methoxyphenyl)-6-[5-[[4-methoxy-3-(trifluoromethyl)benzyl]thio]-1,3,4-oxadiazol-2-yl]-1H-benzimidazole] was tested. Which IC50 (rat cerebral cortex neuronal cells, 2 hr treatment; read-out: IC50 values (Tau phosphorylation AT-8, amended with total Tau)) did it give?
**A.** ≤ 10 µM

From US8492378B2, “GSK-3β inhibitor” (Takeda Pharmaceutical Company Limited, priority 2006, dated 2013)
